In publication PMC5608759:
These are yes or no findings as the source states them, for the method shown. Some binding calls cover weakened binding; strength is not graded here. For some of these results: Sequences can lack the tags named with a protein.

Amino acid sequences for entries named in this document (tags omitted).
UniProt P41887: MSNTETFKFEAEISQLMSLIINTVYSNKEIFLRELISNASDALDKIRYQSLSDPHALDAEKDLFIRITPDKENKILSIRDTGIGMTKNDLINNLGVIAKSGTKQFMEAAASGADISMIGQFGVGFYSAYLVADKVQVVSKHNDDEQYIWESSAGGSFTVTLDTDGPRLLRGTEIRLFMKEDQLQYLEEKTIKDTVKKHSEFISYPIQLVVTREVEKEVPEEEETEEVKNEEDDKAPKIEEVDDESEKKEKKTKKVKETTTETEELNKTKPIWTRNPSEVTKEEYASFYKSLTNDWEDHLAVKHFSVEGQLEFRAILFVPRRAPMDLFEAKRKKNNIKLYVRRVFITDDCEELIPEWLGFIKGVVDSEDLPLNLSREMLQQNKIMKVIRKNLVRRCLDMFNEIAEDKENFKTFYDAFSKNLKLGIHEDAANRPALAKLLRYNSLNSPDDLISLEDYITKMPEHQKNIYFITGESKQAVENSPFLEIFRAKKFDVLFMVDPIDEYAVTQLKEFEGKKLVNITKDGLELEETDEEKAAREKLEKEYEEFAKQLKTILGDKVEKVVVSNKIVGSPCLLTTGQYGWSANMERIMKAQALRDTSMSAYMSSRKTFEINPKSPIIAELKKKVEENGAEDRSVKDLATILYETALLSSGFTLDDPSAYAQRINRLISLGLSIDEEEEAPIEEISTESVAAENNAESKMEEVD
UniProt P04150: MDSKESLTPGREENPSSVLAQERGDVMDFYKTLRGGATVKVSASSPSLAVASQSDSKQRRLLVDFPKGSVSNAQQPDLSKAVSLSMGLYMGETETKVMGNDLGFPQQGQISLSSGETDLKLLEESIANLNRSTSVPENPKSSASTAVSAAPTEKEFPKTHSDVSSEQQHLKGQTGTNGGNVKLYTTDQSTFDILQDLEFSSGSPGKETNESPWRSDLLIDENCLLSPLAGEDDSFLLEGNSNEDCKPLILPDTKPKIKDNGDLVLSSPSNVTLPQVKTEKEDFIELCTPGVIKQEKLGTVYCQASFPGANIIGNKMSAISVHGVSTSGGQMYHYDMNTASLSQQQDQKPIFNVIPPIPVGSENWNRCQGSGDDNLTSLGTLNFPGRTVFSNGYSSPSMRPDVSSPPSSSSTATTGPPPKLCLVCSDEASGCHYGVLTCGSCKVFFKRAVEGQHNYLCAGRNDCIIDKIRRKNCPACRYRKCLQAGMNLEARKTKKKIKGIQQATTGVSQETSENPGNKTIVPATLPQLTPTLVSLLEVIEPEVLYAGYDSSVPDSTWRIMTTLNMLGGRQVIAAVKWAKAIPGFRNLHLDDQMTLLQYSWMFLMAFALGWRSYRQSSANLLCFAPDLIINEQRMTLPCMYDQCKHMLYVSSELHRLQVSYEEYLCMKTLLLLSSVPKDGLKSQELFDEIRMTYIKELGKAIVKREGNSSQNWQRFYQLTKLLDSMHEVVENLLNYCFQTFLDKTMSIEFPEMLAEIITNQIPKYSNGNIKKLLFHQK

How the values were obtained:
Assay in all cases: two-hybrid; S. cerevisiae Y2HGold (Clontech); human GRα on the Gal4 activation domain (pGADT7), S. pombe genes on the Gal4 DNA-binding domain (pGBKT7); growth of blue colonies on medium without leucine, tryptophan, histidine, adenine, with Aureobasidin A (200 ng/ml) and X-α-Gal; ligand-independent
[1] = biological target: S. pombe Hsp90 fused to the Gal4 DNA-binding domain (pGBKT7) (S. pombe) (UniProt P41887)
[2] = biological target: T1, S. pombe mts4 fused to the Gal4 DNA-binding domain (pGBKT7) (S. pombe) (UniProt P87048)
T1 sequence: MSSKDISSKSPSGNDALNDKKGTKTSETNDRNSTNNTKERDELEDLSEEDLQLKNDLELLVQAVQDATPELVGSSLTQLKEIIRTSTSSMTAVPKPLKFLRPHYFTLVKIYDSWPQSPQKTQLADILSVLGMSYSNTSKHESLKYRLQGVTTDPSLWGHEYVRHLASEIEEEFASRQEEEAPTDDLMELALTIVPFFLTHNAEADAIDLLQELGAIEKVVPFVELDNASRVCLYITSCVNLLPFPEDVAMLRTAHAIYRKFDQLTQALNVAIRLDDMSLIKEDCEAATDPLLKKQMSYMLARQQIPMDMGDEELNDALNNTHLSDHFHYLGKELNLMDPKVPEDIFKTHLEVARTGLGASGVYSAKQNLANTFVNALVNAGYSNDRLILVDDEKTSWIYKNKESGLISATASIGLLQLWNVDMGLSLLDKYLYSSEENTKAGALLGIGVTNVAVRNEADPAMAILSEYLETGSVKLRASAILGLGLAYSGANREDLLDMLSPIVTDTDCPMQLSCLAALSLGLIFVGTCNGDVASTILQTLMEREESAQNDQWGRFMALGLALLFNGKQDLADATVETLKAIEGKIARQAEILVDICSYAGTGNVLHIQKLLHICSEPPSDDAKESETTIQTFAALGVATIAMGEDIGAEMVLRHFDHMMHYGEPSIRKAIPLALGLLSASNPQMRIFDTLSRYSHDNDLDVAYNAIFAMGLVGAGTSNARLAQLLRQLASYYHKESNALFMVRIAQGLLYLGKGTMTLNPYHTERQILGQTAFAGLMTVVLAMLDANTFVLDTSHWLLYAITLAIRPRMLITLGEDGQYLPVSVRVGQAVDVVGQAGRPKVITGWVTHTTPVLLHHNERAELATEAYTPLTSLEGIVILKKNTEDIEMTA

[3] = biological target: T2, S. pombe eIF3a fused to the Gal4 DNA-binding domain (pGBKT7) (S. pombe) (UniProt O74760)
T2 sequence: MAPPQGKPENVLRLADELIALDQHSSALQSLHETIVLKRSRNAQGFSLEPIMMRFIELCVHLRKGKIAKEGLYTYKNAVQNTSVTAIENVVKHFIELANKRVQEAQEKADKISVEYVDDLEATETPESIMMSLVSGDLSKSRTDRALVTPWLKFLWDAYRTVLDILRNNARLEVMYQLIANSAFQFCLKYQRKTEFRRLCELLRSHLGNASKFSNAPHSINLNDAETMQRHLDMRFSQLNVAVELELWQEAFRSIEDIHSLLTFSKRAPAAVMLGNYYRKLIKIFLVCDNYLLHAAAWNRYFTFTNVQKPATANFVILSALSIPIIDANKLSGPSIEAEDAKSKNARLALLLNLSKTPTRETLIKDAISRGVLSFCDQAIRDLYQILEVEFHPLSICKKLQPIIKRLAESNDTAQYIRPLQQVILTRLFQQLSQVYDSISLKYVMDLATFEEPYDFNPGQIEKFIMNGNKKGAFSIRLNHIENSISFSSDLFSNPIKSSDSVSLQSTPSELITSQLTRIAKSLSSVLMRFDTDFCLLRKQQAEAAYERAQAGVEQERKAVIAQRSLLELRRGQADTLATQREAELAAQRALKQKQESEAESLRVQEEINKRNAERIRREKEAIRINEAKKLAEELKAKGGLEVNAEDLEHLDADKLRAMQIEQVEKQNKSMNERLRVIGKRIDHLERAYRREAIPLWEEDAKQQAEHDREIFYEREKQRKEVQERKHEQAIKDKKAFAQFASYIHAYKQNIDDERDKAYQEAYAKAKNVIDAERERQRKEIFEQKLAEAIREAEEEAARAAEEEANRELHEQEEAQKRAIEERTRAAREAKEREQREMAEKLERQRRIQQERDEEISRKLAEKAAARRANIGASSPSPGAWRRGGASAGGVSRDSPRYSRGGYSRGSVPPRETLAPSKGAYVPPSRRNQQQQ

[4] = biological target: T3, S. pombe eIF3c fused to the Gal4 DNA-binding domain (pGBKT7) (S. pombe) (UniProt O14164)
T3 sequence: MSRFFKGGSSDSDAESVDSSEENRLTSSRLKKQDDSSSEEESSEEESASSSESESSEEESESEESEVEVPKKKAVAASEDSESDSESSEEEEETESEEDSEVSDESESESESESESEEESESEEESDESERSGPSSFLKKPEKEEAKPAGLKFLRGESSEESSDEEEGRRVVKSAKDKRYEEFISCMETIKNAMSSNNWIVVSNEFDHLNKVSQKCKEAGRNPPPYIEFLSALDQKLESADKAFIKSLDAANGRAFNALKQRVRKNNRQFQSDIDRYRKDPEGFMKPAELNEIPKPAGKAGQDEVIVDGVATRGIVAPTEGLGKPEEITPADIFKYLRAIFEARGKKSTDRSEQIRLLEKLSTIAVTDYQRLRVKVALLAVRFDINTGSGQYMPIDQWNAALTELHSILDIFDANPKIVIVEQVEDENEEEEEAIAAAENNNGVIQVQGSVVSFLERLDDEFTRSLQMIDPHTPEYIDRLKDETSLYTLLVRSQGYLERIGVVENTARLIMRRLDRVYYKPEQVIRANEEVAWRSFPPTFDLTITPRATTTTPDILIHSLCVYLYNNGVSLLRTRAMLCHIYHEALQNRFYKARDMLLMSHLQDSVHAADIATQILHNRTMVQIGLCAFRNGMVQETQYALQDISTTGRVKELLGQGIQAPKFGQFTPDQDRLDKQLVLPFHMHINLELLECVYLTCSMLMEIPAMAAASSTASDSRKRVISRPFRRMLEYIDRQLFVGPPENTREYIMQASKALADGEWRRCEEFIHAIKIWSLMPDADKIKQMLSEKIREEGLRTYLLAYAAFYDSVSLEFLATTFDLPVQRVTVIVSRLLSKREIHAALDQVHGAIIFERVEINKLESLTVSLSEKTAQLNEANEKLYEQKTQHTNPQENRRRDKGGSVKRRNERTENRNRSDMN

binding [1]: binds
binding [2]: binds
binding [3]: binds
binding [4]: binds
Substance: human GRα fused to the Gal4 activation domain (pGADT7) (from UniProt P04150 1-777)
